Results on one substance are retold here after PMC12126231.

The chains behind the UniProt entries cited, without tags or fusion partners.
UniProt Q01147: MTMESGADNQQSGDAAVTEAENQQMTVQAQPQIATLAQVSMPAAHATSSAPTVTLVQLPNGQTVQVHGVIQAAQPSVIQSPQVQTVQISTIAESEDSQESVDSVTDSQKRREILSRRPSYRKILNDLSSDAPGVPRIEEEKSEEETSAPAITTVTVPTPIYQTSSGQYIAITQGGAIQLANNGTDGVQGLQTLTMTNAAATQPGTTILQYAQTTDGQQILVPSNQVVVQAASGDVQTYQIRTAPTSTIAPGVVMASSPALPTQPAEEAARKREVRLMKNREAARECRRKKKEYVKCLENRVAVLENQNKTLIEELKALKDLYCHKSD

Test [1] has as its target T1, FLAG-tagged WT CREB-regulated transcriptional coactivator 2 (CRTC2) (UniProt Q3U182).
T1 sequence: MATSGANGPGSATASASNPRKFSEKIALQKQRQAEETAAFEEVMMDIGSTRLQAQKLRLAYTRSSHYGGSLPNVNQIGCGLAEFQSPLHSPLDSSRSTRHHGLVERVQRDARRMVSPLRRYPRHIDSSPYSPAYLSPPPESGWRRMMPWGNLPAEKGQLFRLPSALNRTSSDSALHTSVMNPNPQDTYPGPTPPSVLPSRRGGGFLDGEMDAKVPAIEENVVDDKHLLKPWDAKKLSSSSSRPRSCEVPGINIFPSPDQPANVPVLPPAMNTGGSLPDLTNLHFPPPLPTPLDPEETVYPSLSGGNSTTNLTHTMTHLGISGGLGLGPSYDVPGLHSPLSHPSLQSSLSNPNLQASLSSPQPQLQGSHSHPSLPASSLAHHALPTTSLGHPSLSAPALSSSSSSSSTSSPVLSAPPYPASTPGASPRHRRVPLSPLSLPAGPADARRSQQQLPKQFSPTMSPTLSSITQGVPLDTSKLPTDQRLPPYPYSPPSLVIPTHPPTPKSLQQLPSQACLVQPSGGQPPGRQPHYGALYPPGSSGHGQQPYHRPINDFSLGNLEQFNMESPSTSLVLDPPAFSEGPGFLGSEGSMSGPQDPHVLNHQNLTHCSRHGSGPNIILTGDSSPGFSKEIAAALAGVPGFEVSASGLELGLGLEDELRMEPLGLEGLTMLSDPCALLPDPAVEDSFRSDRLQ
The test is described as follows: co-IP; AML12 cells transfected with FLAG-tagged CRTC2 plasmids, treated with vehicle or cAMP (8-Br-cAMP) for 1 hour; lysates incubated with magnetic FLAG beads in PP1 homogenization buffer (50 mM HEPES pH 7.2, 2 mM EDTA, 0.2% β-mercaptoethanol, 2 mg/mL glycogen); washed 3 times; blot for CREB.

Test [2] addresses T2, FLAG-tagged S349D CRTC2 (UniProt Q3U182).
T2 sequence: T1 sequence with S349D
The test is described as above.

Positions count from the first letter of the chain named. Results are given in words; binding and its absence hold for the method and conditions named. Binding seen in cells or lysates may run through a third protein. Some binding calls cover weakened binding; strength is not graded here. Tags and fused reporters may be left off the sequences shown.

Take “cAMP-responsive element-binding protein (CREB) (from UniProt Q01147 1-327)”: the binding entry in test [1] and in test [2] was “binds” throughout.
